Screen size: about 52,000 sequences; about 210 (0.4%) were called active.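 How the source made its calls: active means gene whose silencing raises cell survival under the drug, median off-target-corrected z-score across its silencing RNAs 2 or more; inactive means the rest.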 Some of the results follow.
assay: Resistance to Poly (ADP-Ribose) Polymerase inhibitor: Gene Identification via Genome-wide siRNA Screen; details: mouse BRCA2 R2336H ES cells, olaparib, CellTiter-Glo viability; hits give high values
How it was run: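 Mouse BRCA2 R2336H ES cells were reverse-transfected with siRNA (20 nM final), treated at 48 h with 500 nM olaparib, and read by CellTiter-Glo after 72 h. Scores: MAD-based z per siRNA, median per gene, seed off-target correction.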

Sequence | z-score
GGCAGACUCGACAGUUCAATT against Pde6h | inactive: 0.234
GCGGAAACUUGUUAACGAATT against 1600014C10Rik | inactive: -0.502
GGCCAGACUUUCUGACUAUTT against Golga1 | inactive: 0.258
CCCUCACAACUUGAAGGACTT against Ccnk | inactive: -2.29
GCCUGAACUGGCUAGAAAUTT against Tnfsf5ip1 | inactive: -0.148
GCUUCUUAGAGUCUUACCUTT against Rnf38 | inactive: -1.77
GCUAAUCCAGGUAUUGUCATT against 5730469D23Rik | inactive: 0.9
CGUGUUCCGGUCGAGUACUTT against 1700030E05Rik | inactive: -0.715
CCGCUACCAGAUAAACUCGTT against BC053393 | inactive: -0.752
CCCAAUCUCCUAAGAUCUGTT against Snca | inactive: -0.396
GGCAUUUGGUCUUCAUAAATT against 1110032E23Rik | inactive: 0.393
GGGUGUAAAGAAACCUUAATT against Avpr2 | inactive: 2.27
GCUCAAGACAUACUUUGAATT against Ddx56 | inactive: -0.978
GGAAAAAGGAGGGUUUAGCTT against Tm4sf5 | inactive: 0.418
GGCAAUCAGCAUACCAACUTT against Thbs2 | inactive: 0.374
CCAGAGGUAUUGAGAGUAATT against Apob48r | inactive: -3.18
GCAAUUCCACGUAUGGAUUTT against Olfr652 | inactive: 0.293
GGACUGACACUAUAAACUCTT against Ndufb2 | inactive: -0.27
CCGUGUAAGGUGUGGAGUGTT against BC025519 | inactive: -0.875
GGCUGGAGAAUUCUAGAAUTT against Lao1 | inactive: -0.8
GGACAGAUUCUCUGUGAAUTT against Cryab | inactive: -0.828
CCAUUUUAUGGGAGUAUUATT against F730047E07Rik | inactive: -1.79
GGCAAAUUUUUGGAGAUGUTT against Hspa4 | inactive: 1.43
GGACUUGUAUUAGCAGGAATT against Pparg | inactive: -2.37
CCCAAUAUUCAAGGAUAUATT against Gprk2l | inactive: -1.67
CCACUACGAAAUCAUUUCCTT against Car9 | inactive: 1.01

Sequence | z-score
GGCAAUGAUGAUCUCCUCUTT against Htra3 | inactive: 0.678
GCUAAGACUGUACUGUGACTT against BC052360 | inactive: 0.534
GGCUAUGAAGCAGUACAAGTT against Refbp2 | inactive: -0.813
AUUGCAUUGUAUUCACUUGTT against BC050099 | inactive: 0.475
GUGGGAUUCCAGUAGAAAUTT against Olfr1116 | inactive: 0.235
CCUUUGUAGUGCUAGUUAUTT against 5930418K15Rik | inactive: 0.291
CCAUCGGGAUUGACUAUGGTT against C330021A05Rik | inactive: 0.426
GCUCAGAAUAUCACAUCAATT against Ppm1b | inactive: 0.315
GACCCGCUGCUGCUCAAAUTT against Cdc42ep5 | inactive: -0.52
CCUAUGGUGCUCUUAUAAATT against B930011P16Rik | inactive: 0.0288
CGUCAACUCCGACAUCUACTT against Tcerg1 | inactive: 1.48
GGAAAAGGUUUUCUACAACTT against Ephx1 | inactive: -0.2
GCCUUUUCUACCUACACAATT against Paqr4 | inactive: -0.282
CCUAGAGGAUUCAGAUCAATT against 0710005I19Rik | inactive: 2.24
GGCUCUUGAAAAAAACCCATT against 2700082D03Rik | inactive: -0.377
GGAUUAAUGUUUCCUGACUTT against 2410066E13Rik | inactive: 1.52
GCCGCCUAAUGUUGACUUUTT against Usp37 | inactive: -1.72
GGAUUCUAUGAGAAAGUUCTT against Abca7 | inactive: -0.0242
GGUGAUACUAACAGCGGAGTT against Sort1 | inactive: 0.924
CUCAAAAUCUGGUGAUAAATT against Adam34 | inactive: -0.266
GGUUCAGAUCCCUAAAAUATT against Eif2c4 | inactive: -0.977
GGAUAAACUUCCAUCUUUCTT against Car14 | inactive: 1.27
CCGUAAGGAUAUUCUCUAGTT against Pelo | inactive: -2.01
GGUGCUGUUGAAUUGUGGGTT against 2610312E17Rik | inactive: 0.398
CGGCUACUAUGUGAAACUGTT against Jph1 | inactive: -1.91
CGGACGGCAGAAGAAAAAGTT against 9530033F24Rik | inactive: -1.27

Sequence | z-score
CGAGAAAAGACUAUGAUCCTT against 2410017P07Rik | inactive: 0.263
GGUGAUAAAGUCAUUCCACTT against Adh1 | inactive: -1.76
GGGUAUGGAUUCCUGUCAGTT against Pcca | inactive: -1.72
CCCGGGAUAGAGAGGAAAUTT against Nbl1 | inactive: -0.401
GGAGUUCUUUACAUUGGACTT against Olfr554 | inactive: -0.0131
CCCAAGUGGCAUCUAUUCATT against Capn3 | inactive: -1.06
GGUUCUAAAUCAGAAGUGCTT against 1110034B05Rik | inactive: -0.496
CCAAAGGUGUGUGAUACUGTT against 2010107G23Rik | inactive: 0.0261
GGAAAAAUCAGUUUCGUCUTT against Dgkq | inactive: 0.778
CGACUCUGAAGCUAAACAATT against Npr3 | inactive: -0.00231
GGCUAAGUACUCAGCAUAGTT against Ctf2 | inactive: -2
CCCACAUCGAUGGUUAGCUTT against 4930534B04Rik | inactive: -0.199
GGAAGUGGGUAGCAACCAATT against 4833436C18Rik | inactive: -0.614
GCACUUACUCAUUAAUCACTT against Rnf20 | inactive: 0.939
GGACACCAACUUUCUGCCCTT against Wisp2 | inactive: -0.903
GGUCAGACCUGUUGAUAGATT against Nr3c1 | inactive: -0.254
GCUCUAAACAUGAUUCAAGTT against Akap9 | inactive: 1.92
GCUCACCUGAGUCAAUGAUTT against Nr5a2 | inactive: -0.711
GGUGAACCUCAAUAAUAUCTT against Tmod4 | inactive: -0.00862
GGGCCUAAGAAGCAUUACUTT against Np15 | inactive: -0.758
GGUAGCAUUAUUUGUCCUATT against Pcdh15 | inactive: 0.935
GGAGAAACGCAAGAAACGUTT against U2af1-rs1 | inactive: -0.63
CCAUUGUGCAUUAAACAUUTT against Mrpl35 | inactive: 0.776
GGAACUGGCAAGUUAGUUUTT against 3010003L21Rik | inactive: -0.216
GGAGUUACCUUUCGAUAGGTT against Sec10l1 | inactive: -0.437
GCUCCUCUCCAAGGUCAUUTT against Olfr96 | inactive: -0.114

Sequence | z-score
GGACAGAACCAUCUGAAGGTT against Pycs | inactive: -2.77
GGAAGAUGUGACCAAUUCUTT against Gpr73 | inactive: 0.368
GGUACACUAUACUUACAUATT against Dcl1 | inactive: -0.562
GCUGUCGAGUAGAUGUCUUTT against F830014G06Rik | inactive: -2.23
GGGUGUCAAUCUAAAACAUTT against 1110014P06Rik | inactive: 0.933
GGUCUCAUUUCAAAUGGUUTT against Rnf127 | inactive: 0.0923
GGACAUUGGAUUCUUCAUCTT against Grap2 | inactive: 0.469
GGCGGAUCAAACUCGGAUUTT against Pou3f2 | inactive: 0.0964
CGAUAUUUGGUGUGAAAUGTT against 1110020A09Rik | inactive: -1.68
GGUGAUGCAGCAGAUCAUUTT against Nfyc | inactive: -1.82
GGAUCCAAAGAGUAUUGGATT against Olfr521 | inactive: -0.988
GCUUUCUUUUGCACUUGAATT against 1500010J02Rik | inactive: 3.39
GGACCAGAAAAUUCACUUUTT against Gdap2 | inactive: -1.39
GCCUAAUUAUAGUCACUCUTT against Olfr1089 | inactive: 0.424
GGUCUGUGGAUUUAAACUUTT against Sestd1 | inactive: 0.415
GGCAAAAUGCAUAGAGAUATT against Map4k5 | inactive: 0.78
GGGUCCCGAUCCAUAAUUGTT against Itpka | inactive: 0.513
GGCUGUGGAAUGACACCAATT against Sars2 | inactive: -0.232
GGAAAUCAGCAAAGUAAAATT against Golga1 | inactive: -1.39
GGAAUUGGGUUCUACAUGCTT against MGC27770 | inactive: -0.687
GGUUUGCCACCUGUGUGUUTT against Rasgef1b | inactive: -0.862
GCGUGAGAGAUACCGCCAUTT against Gnai2 | inactive: -0.0578
GCCUAUCGAGGAGACACAUTT against Edil3 | inactive: -1.08
GGUGGCCUUUCUUUGUUUATT against BC049762 | inactive: 0.805
GGACCAUCUCUUAUGUCCATT against Olfr54 | inactive: 0.644

Given in markdown: entries from further up

| Sequence | z-score |
| --- | --- |
| GGUUCAGAUCCCUAAAAUATT against Eif2c4 | inactive: -0.977 |
| GGAUAAACUUCCAUCUUUCTT against Car14 | inactive: 1.27 |
| CCGUAAGGAUAUUCUCUAGTT against Pelo | inactive: -2.01 |
| GGUGCUGUUGAAUUGUGGGTT against 2610312E17Rik | inactive: 0.398 |
| CGGCUACUAUGUGAAACUGTT against Jph1 | inactive: -1.91 |
| CGGACGGCAGAAGAAAAAGTT against 9530033F24Rik | inactive: -1.27 |
| CGAGAAAAGACUAUGAUCCTT against 2410017P07Rik | inactive: 0.263 |
| GGUGAUAAAGUCAUUCCACTT against Adh1 | inactive: -1.76 |
| GGGUAUGGAUUCCUGUCAGTT against Pcca | inactive: -1.72 |
| CCCGGGAUAGAGAGGAAAUTT against Nbl1 | inactive: -0.401 |
| GGAGUUCUUUACAUUGGACTT against Olfr554 | inactive: -0.0131 |
| CCCAAGUGGCAUCUAUUCATT against Capn3 | inactive: -1.06 |
| GGUUCUAAAUCAGAAGUGCTT against 1110034B05Rik | inactive: -0.496 |
| CCAAAGGUGUGUGAUACUGTT against 2010107G23Rik | inactive: 0.0261 |
| GGAAAAAUCAGUUUCGUCUTT against Dgkq | inactive: 0.778 |
| CGACUCUGAAGCUAAACAATT against Npr3 | inactive: -0.00231 |
| GGCUAAGUACUCAGCAUAGTT against Ctf2 | inactive: -2 |
| CCCACAUCGAUGGUUAGCUTT against 4930534B04Rik | inactive: -0.199 |
| GGAAGUGGGUAGCAACCAATT against 4833436C18Rik | inactive: -0.614 |
| GCACUUACUCAUUAAUCACTT against Rnf20 | inactive: 0.939 |
| GGACACCAACUUUCUGCCCTT against Wisp2 | inactive: -0.903 |
| GGUCAGACCUGUUGAUAGATT against Nr3c1 | inactive: -0.254 |
| GCUCUAAACAUGAUUCAAGTT against Akap9 | inactive: 1.92 |
| GCUCACCUGAGUCAAUGAUTT against Nr5a2 | inactive: -0.711 |
